# PubChem BioAssay AID1224831, NIAID – 2016
# Assay: 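Genes that support or restrain LPS-induced TNF-alpha reporter activity in macrophage-like cells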 (follow-up of hits)
# System: human THP-1 B5 monocytic leukaemia cells carrying a TNF promoter luciferase reporter, made macrophage-like with PMA
# Knock-down reagent: single siRNA against human genes, 50 nM
# Duration: about 68 h of knock-down, then 4 h LPS
# Conditions: LPS (Salmonella minnesota, TLR-grade) at 10 ng/ml for 4 h; PMA 5 ng/ml present during knock-down
# Measured: 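Firefly to renilla luciferase ratio of a TNF promoter reporter after 4 h LPS, scaled to plate median, turned into robust z-score, averaged over replicates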
# Direction: TNF reporter z-score: higher = stronger LPS-induced TNF reporter signal; z-score, median over gene's siRNAs: higher = stronger TNF reporter signal across the gene's siRNAs
# Active means: 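Two-sided call: reduced or raised TNF reporter signal counts as active once mean z reaches about -1 or below, or about 1.5 or above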
# Meaning of the calls: active = changed TNF reporter (either direction); inactive = little change
# In all, the deposit lists about 3,500 reagents; this is a random part of them. In the full data, 731 (21%) were called active. 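Active means either lowered or raised reporter signal; the gene-median score did not drive the per-siRNA calls.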 Unmarked entries are inactive. Reagents against one gene are numbered here.
gene knocked down,reagent,"TNF reporter z-score, replicate mean","z-score, median over gene's siRNAs"
PVRIG (GeneID 79037),1,-0.05,-0.11
PVRIG (GeneID 79037),2,-0.23,-0.11
PVRIG (GeneID 79037),3,0.01,-0.11
PVRIG (GeneID 79037),4,-0.17,-0.11
PVRIG (GeneID 79037),5,-0.23,-0.11
PVRIG (GeneID 79037),6,1.63 (active),-0.11
HNRNPA2B1 (GeneID 3181),1,0.95,0.65
HNRNPA2B1 (GeneID 3181),2,1.14,0.65
HNRNPA2B1 (GeneID 3181),3,1.13,0.65
HNRNPA2B1 (GeneID 3181),4,-0.43,0.65
HNRNPA2B1 (GeneID 3181),5,0.35,0.65
HNRNPA2B1 (GeneID 3181),6,-0.33,0.65
VPS54 (GeneID 51542),1,0.33,0.165
VPS54 (GeneID 51542),2,-0.47,0.165
VPS54 (GeneID 51542),3,0,0.165
VPS54 (GeneID 51542),4,-0.17,0.165
VPS54 (GeneID 51542),5,1.13,0.165
VPS54 (GeneID 51542),6,0.65,0.165
LINC02914 (GeneID 283598),1,0.8,0.155
LINC02914 (GeneID 283598),2,0.47,0.155
LINC02914 (GeneID 283598),3,0.99,0.155
LINC02914 (GeneID 283598),4,-0.16,0.155
LINC02914 (GeneID 283598),5,-0.19,0.155
LINC02914 (GeneID 283598),6,-0.26,0.155
TTBK2 (GeneID 146057),1,0.18,0.095
TTBK2 (GeneID 146057),2,-0.1,0.095
TTBK2 (GeneID 146057),3,0.01,0.095
TTBK2 (GeneID 146057),4,1.18,0.095
TTBK2 (GeneID 146057),5,0.43,0.095
TTBK2 (GeneID 146057),6,-1.32 (active),0.095
DEFA3 (GeneID 1668),1,0.72,0.335
DEFA3 (GeneID 1668),2,-0.06,0.335
DEFA3 (GeneID 1668),3,0.81,0.335
DEFA3 (GeneID 1668),4,0.42,0.335
DEFA3 (GeneID 1668),5,0.25,0.335
DEFA3 (GeneID 1668),6,-0.72,0.335
PIH1D2 (GeneID 120379),1,-0.36,0.235
PIH1D2 (GeneID 120379),2,1.52 (active),0.235
PIH1D2 (GeneID 120379),3,1.82 (active),0.235
PIH1D2 (GeneID 120379),4,0.37,0.235
PIH1D2 (GeneID 120379),5,0.1,0.235
PIH1D2 (GeneID 120379),6,-0.16,0.235
PHC2 (GeneID 1912),1,-0.5,-0.205
PHC2 (GeneID 1912),2,1.24,-0.205
PHC2 (GeneID 1912),3,-0.26,-0.205
PHC2 (GeneID 1912),4,-0.15,-0.205
PHC2 (GeneID 1912),5,1.51 (active),-0.205
PHC2 (GeneID 1912),6,-0.31,-0.205
DUSP6 (GeneID 1848),1,-0.89,-1.08
DUSP6 (GeneID 1848),2,-1.46 (active),-1.08
DUSP6 (GeneID 1848),3,-1.27 (active),-1.08
DUSP6 (GeneID 1848),4,-0.41,-1.08
DUSP6 (GeneID 1848),5,-1.28 (active),-1.08
DUSP6 (GeneID 1848),6,-0.44,-1.08
KAT7 (GeneID 11143),1,1.71 (active),0.995
KAT7 (GeneID 11143),2,1,0.995
KAT7 (GeneID 11143),3,0.16,0.995
KAT7 (GeneID 11143),4,0.52,0.995
KAT7 (GeneID 11143),5,0.99,0.995
KAT7 (GeneID 11143),6,1.46,0.995

Laid out differently: results already given
PVRIG (GeneID 79037) #3
- TNF reporter z-score, replicate mean: 0.01
- z-score, median over gene's siRNAs: -0.11

PVRIG (GeneID 79037) #4
- TNF reporter z-score, replicate mean: -0.17
- z-score, median over gene's siRNAs: -0.11

PVRIG (GeneID 79037) #5
- TNF reporter z-score, replicate mean: -0.23
- z-score, median over gene's siRNAs: -0.11

PVRIG (GeneID 79037) #6
- TNF reporter z-score, replicate mean: 1.63 (active)
- z-score, median over gene's siRNAs: -0.11
